PubChem BioAssay AID1259425 – University of Nebraska Medical Center, 2018
In all, the deposit lists about 14,000 reagents; this is a part drawn at random. Not all columns of the deposit are shown. Not given: the time to read-out.

- Purpose: 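Find knockdowns that reproduce the gene expression pattern seen when KSR1 is lost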 (primary screen)
- Cell system: HCT116 human colon cancer cells
- Knock-down reagent: siRNA pool against human genes, 50 nM siRNA
- Read-out: 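mRNA of six signature genes measured together by branched-DNA assay after 50 nM siRNA pool, blank removed, divided by geometric mean of two housekeeping genes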
- Scale: BNIP3L mRNA: higher = more BNIP3L transcript after knockdown

What did the screen give for LONP1 (lon peptidase 1, mitochondrial)?
BNIP3L mRNA, set 1: 0.168

For PPP2CA (protein phosphatase 2 catalytic subunit alpha), how do the results read?
BNIP3L mRNA, set 1: 0.081

How did the screen score GABRR1 (gamma-aminobutyric acid type A receptor subunit rho1)?
BNIP3L mRNA, set 1: 0.153

For MED6 (mediator complex subunit 6), what was measured?
BNIP3L mRNA, set 1: 0.169

What is on record for CDCA4 (cell division cycle associated 4)?
BNIP3L mRNA, set 1: 0.0905

Which result is listed for ACRV1 (acrosomal vesicle protein 1)?
BNIP3L mRNA, set 1: 0.106

What is on record for ANXA8L1 (annexin A8 like 1)?
BNIP3L mRNA, set 1: 0.116

What is on record for RNF170 (ring finger protein 170)?
BNIP3L mRNA, set 1: 0.0973

What is on record for DEPDC1B (DEP domain containing 1B)?
BNIP3L mRNA, set 1: 0.0336

With AGPAT4 (1-acylglycerol-3-phosphate O-acyltransferase 4), what does the deposit list?
BNIP3L mRNA, set 1: 0.245

With TGDS (TDP-glucose 4,6-dehydratase), what was measured?
BNIP3L mRNA, set 1: 0.0921

With IL12B (interleukin 12B), what was measured?
BNIP3L mRNA, set 1: 0.0574
